# Source: the supplement of paper PMC8728848
# This is one part of the list.
# B1: CD34 (Homo sapiens), P28906 (protein)
# chain: MGSSHHHHHHSSGLVPRGSHMSTSLATSPTKPYTSSSPILSDIKAEIKCSGIREVKLTQGICLEQNKTSSCAEFKKDRGEGLARVLCGEEQADADAGAQVCSLLLAQSEVRPQCLLLVLANRTEISSKLQLMKKHQSDLKKLGILDFTEQDVASHQSYSQKT
# How the values were obtained:
# Test in all cases: glycan array binding signal (z-score within array); higher = stronger binding
# Details in all cases: glycan notation: IUPAC condensed, linker removed
# [1] = molecular target: Gal(b1-4)GlcNAc(b1-3)Gal(b1-4)GlcNAc(b1-3)Gal(b1-4)GlcNAc(b1-3)Gal(b1-4)GlcNAc(b1-2)Man(a1-3)[Gal(b1-4)GlcNAc(b1-3)Gal(b1-4)GlcNAc(b1-3)Gal(b1-4)GlcNAc(b1-3)Gal(b1-4)GlcNAc(b1-2)Man(a1-6)]Man(b1-4)GlcNAc(b1-4)GlcNAc
# In short: (§1)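 From the Consortium for Functional Glycomics database, 3228 arrays were curated, keeping only those whose protein sequence was available. Binding is given as a within-array Z-score averaged across arrays sharing a protein sequence and across linkers. Negative Z-scores can be read as non-binding.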
# [2] = molecular target: Gal(b1-4)GlcNAc(b1-3)Gal(b1-4)GlcNAc(b1-3)Gal(b1-4)GlcNAc(b1-3)Gal(b1-4)GlcNAc(b1-2)Man(a1-3)[Gal(b1-4)GlcNAc(b1-3)Gal(b1-4)GlcNAc(b1-3)Gal(b1-4)GlcNAc(b1-3)Gal(b1-4)GlcNAc(b1-2)Man(a1-6)]Man(b1-4)GlcNAc(b1-4)[Fuc(a1-6)]GlcNAc
# In short: as §1
# [3] = molecular target: Gal(b1-4)GlcNAc(b1-3)Gal(b1-4)GlcNAc(b1-3)Gal(b1-4)GlcNAc(b1-3)Gal(b1-4)GlcNAc(b1-2)[Gal(b1-4)GlcNAc(b1-3)Gal(b1-4)GlcNAc(b1-3)Gal(b1-4)GlcNAc(b1-3)Gal(b1-4)GlcNAc(b1-6)]Man(a1-6)[Gal(b1-4)GlcNAc(b1-3)Gal(b1-4)GlcNAc(b1-3)Gal(b1-4)GlcNAc(b1-3)Gal(b1-4)GlcNAc(b1-2)Man(a1-3)]Man(b1-4)GlcNAc(b1-4)[Fuc(a1-6)]GlcNAc
# In short: as §1
# [4] = molecular target: Gal(b1-4)GlcNAc(b1-3)Gal(b1-4)GlcNAc(b1-3)Gal(b1-4)GlcNAc(b1-3)Gal(b1-4)GlcNAc(b1-3)Gal(b1-4)GlcNAc(b1-2)Man(a1-3)[Gal(b1-4)GlcNAc(b1-3)Gal(b1-4)GlcNAc(b1-3)Gal(b1-4)GlcNAc(b1-3)Gal(b1-4)GlcNAc(b1-3)Gal(b1-4)GlcNAc(b1-2)Man(a1-6)]Man(b1-4)GlcNAc(b1-4)GlcNAc
# In short: as §1
# [5] = molecular target: Gal(b1-4)GlcNAc(b1-3)Gal(b1-4)GlcNAc(b1-3)Gal(b1-4)GlcNAc(b1-3)Gal(b1-4)GlcNAc(b1-3)Gal(b1-4)GlcNAc(b1-2)Man(a1-3)[Gal(b1-4)GlcNAc(b1-3)Gal(b1-4)GlcNAc(b1-3)Gal(b1-4)GlcNAc(b1-3)Gal(b1-4)GlcNAc(b1-3)Gal(b1-4)GlcNAc(b1-2)Man(a1-6)]Man(b1-4)GlcNAc(b1-4)[Fuc(a1-6)]GlcNAc
# In short: as §1
# [6] = molecular target: Gal(b1-4)GlcNAc(b1-3)Gal(b1-4)GlcNAc(b1-3)Gal(b1-4)GlcNAc(b1-3)Gal(b1-4)GlcNAc(b1-3)Gal(b1-4)GlcNAc(b1-2)[Gal(b1-4)GlcNAc(b1-3)Gal(b1-4)GlcNAc(b1-3)Gal(b1-4)GlcNAc(b1-3)Gal(b1-4)GlcNAc(b1-3)Gal(b1-4)GlcNAc(b1-6)]Man(a1-6)[Gal(b1-4)GlcNAc(b1-3)Gal(b1-4)GlcNAc(b1-3)Gal(b1-4)GlcNAc(b1-3)Gal(b1-4)GlcNAc(b1-3)Gal(b1-4)GlcNAc(b1-2)Man(a1-3)]Man(b1-4)GlcNAc(b1-4)[Fuc(a1-6)]GlcNAc
# In short: as §1
# [7] = molecular target: Gal(b1-4)GlcNAc(b1-3)Gal(b1-4)GlcNAc(b1-3)Gal(b1-4)GlcNAc(b1-3)Gal(b1-4)GlcNAc(b1-3)Gal(b1-4)GlcNAc(b1-3)Gal(b1-4)GlcNAc(b1-2)Man(a1-3)[Gal(b1-4)GlcNAc(b1-3)Gal(b1-4)GlcNAc(b1-3)Gal(b1-4)GlcNAc(b1-3)Gal(b1-4)GlcNAc(b1-3)Gal(b1-4)GlcNAc(b1-3)Gal(b1-4)GlcNAc(b1-2)Man(a1-6)]Man(b1-4)GlcNAc(b1-4)GlcNAc
# In short: as §1
# [8] = molecular target: Gal(b1-4)GlcNAc(b1-3)Gal(b1-4)GlcNAc(b1-3)GalNAc
# In short: as §1
# [9] = molecular target: Gal(b1-4)GlcNAc(b1-3)Gal(b1-4)GlcNAc(b1-3)[Gal(b1-4)GlcNAc(b1-3)Gal(b1-4)GlcNAc(b1-6)]GalNAc
# In short: as §1
# [10] = molecular target: Gal(b1-4)GlcNAc(b1-3)Gal(b1-4)GlcNAc(b1-6)[Gal(b1-3)]GalNAc
# In short: as §1
# [11] = molecular target: Gal(b1-4)GlcNAc(b1-3)Gal(b1-4)[Fuc(a1-3)]GlcNAc(b1-3)Gal(b1-4)[Fuc(a1-3)]GlcNAc
# In short: as §1
# [12] = molecular target: Gal(b1-4)GlcNAc(b1-3)GalNAc
# In short: as §1
# [13] = molecular target: Gal(b1-4)GlcNAc(b1-3)[Fuc(a1-3)GlcNAc(b1-6)]Gal(b1-4)Glc
# In short: as §1
# [14] = molecular target: Gal(b1-4)GlcNAc(b1-3)[Gal(b1-4)GlcNAc(b1-6)]Gal(b1-4)GlcNAc
# In short: as §1
# [15] = molecular target: Gal(b1-4)GlcNAc(b1-3)[GlcNAc(b1-6)]Gal(b1-4)GlcNAc
# In short: as §1
# [16] = molecular target: Gal(b1-4)GlcNAc(b1-6)Gal(b1-4)GlcNAc
# In short: as §1
# [17] = molecular target: Gal(b1-4)GlcNAc(b1-6)GalNAc
# In short: as §1
# [18] = molecular target: Gal(b1-4)GlcNAc(b1-6)[Gal(b1-3)]GalNAc
# In short: as §1
# [19] = molecular target: Gal(b1-4)GlcNAc(b1-6)[Gal(b1-4)GlcNAc(b1-3)]GalNAc
# In short: as §1
# [20] = molecular target: Gal(b1-4)GlcNAc6P
# In short: as §1
# [21] = molecular target: Gal(b1-6)Gal
# In short: as §1
# [22] = molecular target: Gal3S(b1-3)GalNAc
# In short: as §1
# [23] = molecular target: Gal3S(b1-3)GlcNAc
# In short: as §1
binder,measurement,setting,value
B1,glycan array binding signal (z-score),[1],-0.697
same,glycan array binding signal (z-score),[2],-0.22
same,glycan array binding signal (z-score),[3],0.423
same,glycan array binding signal (z-score),[4],-0.161
same,glycan array binding signal (z-score),[5],-0.178
same,glycan array binding signal (z-score),[6],-0.023
same,glycan array binding signal (z-score),[7],0.838
same,glycan array binding signal (z-score),[8],1.97
same,glycan array binding signal (z-score),[9],0.532
same,glycan array binding signal (z-score),[10],-0.5
same,glycan array binding signal (z-score),[11],-0.847
same,glycan array binding signal (z-score),[12],-0.598
same,glycan array binding signal (z-score),[13],0.441
same,glycan array binding signal (z-score),[14],-0.79
same,glycan array binding signal (z-score),[15],0.941
same,glycan array binding signal (z-score),[16],0.796
same,glycan array binding signal (z-score),[17],-0.125
same,glycan array binding signal (z-score),[18],0.603
same,glycan array binding signal (z-score),[19],-0.112
same,glycan array binding signal (z-score),[20],0.074
same,glycan array binding signal (z-score),[21],1.66
same,glycan array binding signal (z-score),[22],0.776
same,glycan array binding signal (z-score),[23],0.293

# Some of the entries above, set out differently.
binder	measurement	setting	value
B1	glycan array binding signal (z-score)	[10]	-0.5
same	glycan array binding signal (z-score)	[14]	-0.79
